PubChem BioAssay AID1159578, Peter MacCallum Cancer Centre | 2015

- Purpose: 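siRNA pools altering how lymphatic endothelial cells close a scratch wound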 (primary screen)
- Cells: human lymphatic endothelial cells
- Knock-down reagent: siRNA pool against human genes, 40 nM
- Timing: 48 h after transfection
- Measurement: 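Cells stained with dye and imaged after a scratch; covered wound area and nuclei counted, duplicates averaged, migration set against mock wells and turned into a robust z-score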
- Direction: migration robust z-score: higher = faster migration into the scratch; migration relative to mock: higher = more scratch area covered than mock; nuclei per well: higher = more cells in the well
- Call rule: 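Pools averaging fewer than 3300 nuclei are never called; remaining pools count as changed when migration robust z lies outside -2 to 2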
- Calls: active = migration changed; inactive = no migration change, or too few cells
This is a random part of about 18,000 reagents. Of all reagents, about 1,030 (5.7%) were called active. 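Inactive calls also include pools with fewer than 3300 nuclei, whose migration was not assessed.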 Raw values are not corrected between plates.

| gene symbol | migration robust z-score | migration class with cell-count check | migration relative to mock | nuclei per well, duplicate mean | Call |
| --- | --- | --- | --- | --- | --- |
| DCUN1D3 (defective in cullin neddylation 1 domain containing 3) | 0.93 | migration z between -2 and 2; enough cells | 0.98 | 4741 | inactive |
| MACIR (macrophage immunometabolism regulator) | 0.94 | migration z between -2 and 2; enough cells | 1.13 | 4900 | inactive |
| ANO2 (anoctamin 2) | 0.74 | migration z between -2 and 2; enough cells | 1.07 | 4755 | inactive |
| OXLD1 (oxidoreductase like domain containing 1) | -0.86 | migration z between -2 and 2; enough cells | 0.66 | 4832 | inactive |
| ARIH1 (ariadne RBR E3 ubiquitin protein ligase 1) | 1.27 | migration z between -2 and 2; enough cells | 1.05 | 6024 | inactive |
| ZNF69 (zinc finger protein 69) | -0.95 | migration z between -2 and 2; enough cells | 0.64 | 5204 | inactive |
| ENTPD2 (ectonucleoside triphosphate diphosphohydrolase 2) | -0.4 | migration z between -2 and 2; enough cells | 0.78 | 3626 | inactive |
| GABRG2 (gamma-aminobutyric acid type A receptor subunit gamma2) | 0 | migration z between -2 and 2; enough cells | 0.8 | 4878 | inactive |
| MED26 (mediator complex subunit 26) | 0.16 | migration z between -2 and 2; enough cells | 0.84 | 5250 | inactive |
| ERMAP | 0.79 | migration z between -2 and 2; enough cells | 1.09 | 5746 | inactive |
| STOML1 (stomatin like 1) | -0.64 | migration z between -2 and 2; enough cells | 0.72 | 4410 | inactive |
| PHF1 (PHD finger protein 1) | 1.14 | migration z between -2 and 2; enough cells | 1.02 | 5382 | inactive |
| CCL25 (C-C motif chemokine ligand 25) | 0.11 | migration z between -2 and 2; enough cells | 0.91 | 5958 | inactive |
| ABHD18 (abhydrolase domain containing 18) | 1.23 | migration z between -2 and 2; enough cells | 1.21 | 5286 | inactive |
| OMG (oligodendrocyte myelin glycoprotein) | 0.16 | migration z between -2 and 2; enough cells | 0.84 | 5246 | inactive |
| NRXN3 (neurexin 3) | 1.2 | migration z between -2 and 2; enough cells | 1.19 | 7156 | inactive |
| TCIM (transcriptional and immune response regulator) | -1.53 | migration z between -2 and 2; enough cells | 0.49 | 5407 | inactive |
| SDC4 (syndecan 4) | -0.16 | migration z between -2 and 2; enough cells | 0.84 | 5514 | inactive |
| SPP2 (secreted phosphoprotein 2) | -0.15 | migration z between -2 and 2; enough cells | 0.84 | 5144 | inactive |
| GPR68 (G protein-coupled receptor 68) | 0.54 | migration z between -2 and 2; enough cells | 0.91 | 4243 | inactive |
| IWS1 (interacts with SUPT6H, CTD assembly factor 1) | -0.19 | migration z between -2 and 2; enough cells | 0.83 | 6548 | inactive |
| SERTAD1 (SERTA domain containing 1) | 0.08 | migration z between -2 and 2; enough cells | 0.82 | 5740 | inactive |
| MAP7 (microtubule associated protein 7) | -0.16 | migration z between -2 and 2; enough cells | 0.84 | 6366 | inactive |
| ATP5PO (ATP synthase peripheral stalk subunit OSCP) | -0.68 | migration z between -2 and 2; enough cells | 0.68 | 5300 | inactive |
| H3C10 (H3 clustered histone 10) | 1.11 | migration z between -2 and 2; enough cells | 1.17 | 6476 | inactive |
| SLC68A1 | 0.8 | migration z between -2 and 2; enough cells | 1.09 | 7073 | inactive |
| ZNF208 (zinc finger protein 208) | 0.11 | migration z between -2 and 2; enough cells | 0.91 | 4950 | inactive |
| BRCC3 (BRCA1/BRCA2-containing complex subunit 3) | -0.34 | migration z between -2 and 2; enough cells | 0.8 | 5539 | inactive |
| CDK5RAP1 (CDK5RAP1 mitochondrial tRNA methylthiotransferase) | 0.16 | migration z between -2 and 2; enough cells | 0.84 | 5167 | inactive |
| C17orf78 (chromosome 17 open reading frame 78) | 1.9 | migration z between -2 and 2; enough cells | 1.38 | 7130 | inactive |
| AKAP11 (A-kinase anchoring protein 11) | -2.75 | migration z below -2; enough cells | 0.28 | 3608 | active |
| THRSP (thyroid hormone responsive) | 1.17 | migration z between -2 and 2; enough cells | 1.19 | 4102 | inactive |
| MEMO1 (mediator of cell motility 1) | -0.2 | migration z between -2 and 2; enough cells | 0.84 | 6106 | inactive |
| CHRM3 (cholinergic receptor muscarinic 3) | -0.76 | migration z between -2 and 2; enough cells | 0.66 | 6458 | inactive |
| SIX4 (SIX homeobox 4) | 0.28 | migration z between -2 and 2; enough cells | 0.86 | 4824 | inactive |
| TFAP2B (transcription factor AP-2 beta) | 0.38 | migration z between -2 and 2; enough cells | 0.88 | 5830 | inactive |

Part of the list above, limited to “migration robust z-score”:
SPP2 (secreted phosphoprotein 2)	-0.15
GPR68 (G protein-coupled receptor 68)	0.54
IWS1 (interacts with SUPT6H, CTD assembly factor 1)	-0.19
SERTAD1 (SERTA domain containing 1)	0.08
MAP7 (microtubule associated protein 7)	-0.16

More entries follow.
| gene symbol | migration robust z-score | migration class with cell-count check | migration relative to mock | nuclei per well, duplicate mean | Call |
| --- | --- | --- | --- | --- | --- |
| DLX1 (distal-less homeobox 1) | -2.64 | migration z below -2; enough cells | 0.2 | 3638 | active |
| DMAP1 (DNA methyltransferase 1 associated protein 1) | 0.86 | migration z between -2 and 2; enough cells | 1.11 | 4508 | inactive |
| KPNA5 (karyopherin subunit alpha 5) | 1.49 | migration z between -2 and 2; enough cells | 1.27 | 4669 | inactive |
| DUSP5 (dual specificity phosphatase 5) | -0.86 | migration z between -2 and 2; enough cells | 0.64 | 6051 | inactive |
| RRP36 (ribosomal RNA processing 36) | 0.12 | migration z between -2 and 2; enough cells | 0.92 | 5108 | inactive |
| NME1 (NME/NM23 nucleoside diphosphate kinase 1) | -1.48 | migration z between -2 and 2; enough cells | 0.52 | 3623 | inactive |
| FANCM (FA complementation group M) | -1.35 | migration z between -2 and 2; enough cells | 0.54 | 4990 | inactive |
| SPANXN5 (SPANX family member N5) | 0.59 | migration z between -2 and 2; enough cells | 1.04 | 6784 | inactive |
| SHOC2 (SHOC2 leucine rich repeat scaffold protein) | -2.13 | migration z below -2; enough cells | 0.33 | 4022 | active |
| WDR6 (WD repeat domain 6) | 2.67 | migration z above 2; enough cells | 1.58 | 5749 | active |
| PLA2G4F (phospholipase A2 group IVF) | 0.13 | migration z between -2 and 2; enough cells | 0.83 | 5510 | inactive |
| GPR15 (G protein-coupled receptor 15) | 0.8 | migration z between -2 and 2; enough cells | 0.96 | 5718 | inactive |
| TMEM127 (transmembrane protein 127) | 0.43 | migration z between -2 and 2; enough cells | 1 | 5270 | inactive |
| IER3 (immediate early response 3) | 0.15 | migration z between -2 and 2; enough cells | 0.92 | 5424 | inactive |
| ECT2 (epithelial cell transforming 2) | 0.83 | migration z between -2 and 2; enough cells | 0.97 | 5332 | inactive |
| OR1C1 (olfactory receptor family 1 subfamily C member 1) | -1.03 | migration z between -2 and 2; enough cells | 0.62 | 4972 | inactive |
| LRP4 (LDL receptor related protein 4) | 1.44 | migration z between -2 and 2; enough cells | 1.26 | 5027 | inactive |
| ZCCHC8 (zinc finger CCHC-type containing 8) | 0.48 | migration z between -2 and 2; enough cells | 1.01 | 7145 | inactive |
| LGSN (lengsin, lens protein with glutamine synthetase domain) | -0.46 | migration z between -2 and 2; enough cells | 0.76 | 6352 | inactive |
| EIF3M (eukaryotic translation initiation factor 3 subunit M) | -1.36 | migration z between -2 and 2; enough cells | 0.52 | 5946 | inactive |
| UNCX (UNC homeobox) | -2.29 | migration z below -2; enough cells | 0.28 | 4396 | active |
| AOPEP (aminopeptidase O (putative)) | 1.22 | migration z between -2 and 2; enough cells | 1.04 | 5854 | inactive |
| CKAP2L (cytoskeleton associated protein 2L) | 0.76 | migration z between -2 and 2; enough cells | 1.08 | 4118 | inactive |
| FGL1 (fibrinogen like 1) | -0.3 | migration z between -2 and 2; enough cells | 0.81 | 4580 | inactive |
| WDR27 (WD repeat domain 27) | 0.68 | migration z between -2 and 2; enough cells | 1.06 | 4968 | inactive |
| TPD52L3 (TPD52 like 3) | 0 | migration z between -2 and 2; enough cells | 0.8 | 4297 | inactive |
| PABPN1 (poly(A) binding protein nuclear 1) | 0.2 | migration z between -2 and 2; enough cells | 0.94 | 5792 | inactive |
| ANO1 (anoctamin 1) | -0.66 | migration z between -2 and 2; enough cells | 0.72 | 5208 | inactive |
| ZWILCH (zwilch kinetochore protein) | -2.15 | migration z below -2; enough cells | 0.32 | 6675 | active |
| KIAA1586 | 0.03 | migration z between -2 and 2; enough cells | 0.89 | 5738 | inactive |
| VPS11 (VPS11 core subunit of CORVET and HOPS complexes) | -2.12 | migration z below -2; enough cells | 0.4 | 5199 | active |
| OR5T3 (olfactory receptor family 5 subfamily T member 3) | 0.02 | migration z between -2 and 2; enough cells | 0.89 | 4564 | inactive |
| PRR14L (proline rich 14 like) | -0.84 | migration z between -2 and 2; enough cells | 0.66 | 6018 | inactive |
| ARID2 (AT-rich interaction domain 2) | 0.12 | migration z between -2 and 2; enough cells | 0.92 | 7000 | inactive |
| OR4F3 (olfactory receptor family 4 subfamily F member 3) | 0.12 | migration z between -2 and 2; enough cells | 0.92 | 6002 | inactive |
| PSMB2 (proteasome 20S subunit beta 2) | 0.1 | migration z between -2 and 2; enough cells | 0.82 | 5329 | inactive |
| BEST2 (bestrophin 2) | 0 | migration z between -2 and 2; enough cells | 0.88 | 6622 | inactive |
